Results from doi:10.1101/490318.
These are yes or no findings as the source states them, for the method shown. Binding seen in cells or lysates may run through a third protein. A yes stands for co-enrichment or nearness to the bait. Other partners may have been found.

B1: G3BP2 (protein, UniProt P97379 1-482)
chain: MVMEKPSPLLVGREFVRQYYTLLNKAPEYLHRFYGRNSSYVHGGVDASGKPQEAVYGQNDIHHKVLSLNFSECHTKIRHVDAHATLSDGVVVQVMGLLSNSGQPERKFMQTFVLAPEGSVPNKFYVHNDMFRYEDEVFGDSEPELDEESEDEVEEEQEDRQPSPEPVQENANSAYYDAHPVTNGIEEPLEESSHEPEPEPESETKTEELKPQVEEKHLEELEEKSATPPPAEPASLPQEPPKAFSWASVTSKNLPPSGTVSSSGIPPHVKAPVSQPRVDAKPEVQSQPPRVREQRPRERPGFPPRGPRPGRGDMEQNDSDNRRIIRYPDSHQLFVGNLPHDIDENELKEFFMSFGNVVELRINTKGVGGKLPNFGFVVFDDSEPVQRILIAKPIMFRGEVRLNVEEKKTRAARERETRGGGDDRRDIRRNDRGPGGPRGIVGGGMMRDRDGRGPPPRGGMTQKLGSGRGTGQMEGRFTGQRR
B2: PUM3 (protein, UniProt Q8BKS9 1-647)
chain: MEVKGKKKFTGKSPQTSQGKNKFHKNSESSSSKTFPRKAVKEGGPKVTSKNFEKGATKPGKKGVKQFKNKPQGGKGPKDKFQKANKFSKKRKFQPDGESDESGAKKPKWDDFKKKKKELKQSRQLSDKTNYDIVVRAKHIWESLRRKDCDKEKRVKLMSDLQKLIQGKIKTIAFAHDSTRVIQCFIQYGNEEQRKQAFQELQGDLVELSKAKYSRNIVKKFLMYGSKPQVAEIIRSFKGHVRKMLRHSEASAIVEYAYNDKAILEQRNMLTEELYGNTFQLYKSADHPTLDKVLELQPAKLELIMDEMKQILTPMAQKEAVIKHSLVHKVFLDFFTYAPPKPRSELIEAIREAVVYLAHTHDGARVAMHCLWHGTPKDRKVIVKTMKTYVEKVANGQYSHLVLLAAFDCIDDTKLVKQIIISEIISSLPSIVNDKYGRKVLLYLMSPRDPAHTVPELIELLQKGDGNAHSKKDTAIRRRELLESISPALLSYLQGHTQEVVLDKSACVLVSDMLGSATGDVQPAMDAIASLAAAELHPGGKDGELHVAEHPAGHLVLKWLLEQDKKMKESGKEGCFAKTLVERVGMKNLKSWASINRGAIILSSLLQSCDQEVVNKVKGGLKPLIPTLEKNKSSSRGIQTLLEKLTA
B3: eIF2Bepsilon (protein, UniProt Q8CHW4 1-717)
chain: MAATAAVPGAAAGRASKRGGGGSGGGGTQGAEEEPPPPLQAVLVADSFNRRFFPISKDQPRVLLPLANVALIDYTLEFLTATGVQETFVFCCWKAAQIKEHLQKSKWCHPTSPNVVRIITSELYRSLGDVLRDVDAKALVRSDFLLIYGDVISNINICRALEEHRLRRKLEKNVSVMTMVFKESSPSHPTRCHEDNVVMAVDSATNRVLHFQKTQGLRRFSFPLSLFQGSGDGVEIRYDLLDCHISICSPQVAQLFTDNFDYQTRDDFVRGILMNEEVLGNQIHLHVTTREYGARVSNLHMYSAVCADVIRRWVYPLTPEVNFTDSTTQSYTHSRHNIYRGPEVSLGHGSVLEENVLLGAGTVIGSNCSITNSVIGPNCHIGDNVVLDQAYLWQGVRVAAGAQIHQSLLCDRAEVKERVKLKPYCVLTSQVVVGPDITLPEGSVISLHPPDAEEDEDDGQFSDDSGADQEKEKVKLKGYNPAEVGLEGQGYLWKAEGVNSKEDEELRQSLWGLMIKTEEESETESEGSVDPEELDSRAGSPQLDDIRVFQNEVLGTLQRGREENISCENLVLEINSLKHAYNISLKEVMQVLTLVVLEFPLQQVDGLLDPNRYCALLLPLLKAWSPVLRNYIKRAADHLEALAAIEDFFLEHETLVTSMAKVLMAFYQLEILAEETILSWFSQRDTTDEGQQLRKNQQLQRFIQWLREAEEESSEDD
B4: eIF2Balpha (protein, UniProt Q99LC8 1-305)
chain: MEDGELIEYFKSQMKGDPKMASAVAAIQTLLEFLKRDKGETLQGLRANLTYAIKTLCGVDSSVAVSSGGELFLRFISLTSLEYSDYSKCKKIMIERGELFLRRISLSRNKIANLCHTFIKDGARILTHAYSRVVLRVLEEAVAAKKRFSVYITESQPDLSGKKMAKALSHLNVPVTVVLDAAVGYIMEKADLVIVGAEGVVENGGIINKIGTNQMAVCAKAQNKPFYVVAESFKFVRLFPLNQEDVPDKFKYKADTLKSVQTGQDLKEEHPWVDYTSPSLITLLFTDLGVLTPSAVSDELIKLYL
B5: PABP2 (protein, UniProt Q8CCS6 1-302)
chain: MAAAAAAAAAAGAAGGRGSGPGRRRHLVPGAGGEAGEGDPGGAGDYGNGLESEELEPGELLPEPEPEEEPPRPRAPPGAPGPGPGSGAPGSQEEEEEPGLVEADPGDGAIEDPELEAIKARVREMEEEAEKLKELQNEVEKQMNMSPPPGNAGPVIMSLEEKMEADARSIYVGNVDYGATAEELEAHFHGCGSVNRVTILCDKFSGHPKGFAYIEFSDKESVRTSLALDESLFRGRQIKVIPKRTNRPGISTTDRGFPRSRYRARTTNYNSSRSRFYSGFNSRPRGRIYRGRARATSWYSPY

target: GFP-tagged G3BP1 (Ras-GTPase activating SH3 domain binding protein 1); assay: affinity purification with mass spectrometry

Row | Binder | binding
1 | B1 | binds
2 | B2 | binds
3 | B3 | binds
4 | B4 | binds
5 | B5 | binds
